# Results are given in words; binding and its absence hold for the method and conditions named. Some binding calls cover weakened binding; strength is not graded here.
# By UniProt entry, the sequences of proteins in these tests, tags left out. Where a name states a change or a piece, a line headed by the entry shows the natural chain unless it says otherwise. Residues count along the entry.
# UniProt Q02763, residues 23-748: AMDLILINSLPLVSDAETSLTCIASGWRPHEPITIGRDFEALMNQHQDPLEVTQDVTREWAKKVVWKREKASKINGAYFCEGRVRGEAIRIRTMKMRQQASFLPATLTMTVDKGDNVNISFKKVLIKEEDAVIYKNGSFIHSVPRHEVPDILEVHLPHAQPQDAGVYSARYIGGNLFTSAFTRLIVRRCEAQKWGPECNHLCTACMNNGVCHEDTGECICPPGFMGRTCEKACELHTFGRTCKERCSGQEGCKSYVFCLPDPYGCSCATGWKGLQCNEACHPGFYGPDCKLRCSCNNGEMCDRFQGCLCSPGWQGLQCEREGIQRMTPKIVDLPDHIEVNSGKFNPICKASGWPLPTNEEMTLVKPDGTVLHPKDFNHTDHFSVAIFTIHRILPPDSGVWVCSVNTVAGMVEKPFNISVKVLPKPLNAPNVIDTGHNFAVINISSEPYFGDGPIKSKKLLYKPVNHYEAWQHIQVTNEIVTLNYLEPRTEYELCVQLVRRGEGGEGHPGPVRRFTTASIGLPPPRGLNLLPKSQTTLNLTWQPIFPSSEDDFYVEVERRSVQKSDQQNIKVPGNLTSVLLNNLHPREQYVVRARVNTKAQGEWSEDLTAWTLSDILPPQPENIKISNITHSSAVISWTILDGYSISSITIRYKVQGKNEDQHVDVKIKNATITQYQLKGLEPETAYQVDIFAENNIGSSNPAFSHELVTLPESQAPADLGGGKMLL
# UniProt P02769, residues 25-607: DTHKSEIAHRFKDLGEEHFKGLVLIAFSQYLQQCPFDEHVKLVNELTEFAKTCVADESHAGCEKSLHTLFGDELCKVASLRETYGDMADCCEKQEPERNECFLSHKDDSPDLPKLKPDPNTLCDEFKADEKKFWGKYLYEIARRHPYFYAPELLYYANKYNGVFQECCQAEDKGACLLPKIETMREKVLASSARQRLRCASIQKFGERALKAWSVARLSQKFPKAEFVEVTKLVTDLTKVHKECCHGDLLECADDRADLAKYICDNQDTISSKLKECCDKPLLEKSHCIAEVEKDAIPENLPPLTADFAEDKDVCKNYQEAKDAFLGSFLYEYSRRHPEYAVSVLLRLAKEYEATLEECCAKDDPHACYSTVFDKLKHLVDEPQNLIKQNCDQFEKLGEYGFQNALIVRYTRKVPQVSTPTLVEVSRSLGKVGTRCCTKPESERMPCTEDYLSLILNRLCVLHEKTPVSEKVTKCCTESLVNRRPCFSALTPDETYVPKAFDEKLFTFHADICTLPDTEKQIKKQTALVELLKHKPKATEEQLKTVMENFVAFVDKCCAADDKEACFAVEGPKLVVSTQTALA
# UniProt P07589, residues 33-2478: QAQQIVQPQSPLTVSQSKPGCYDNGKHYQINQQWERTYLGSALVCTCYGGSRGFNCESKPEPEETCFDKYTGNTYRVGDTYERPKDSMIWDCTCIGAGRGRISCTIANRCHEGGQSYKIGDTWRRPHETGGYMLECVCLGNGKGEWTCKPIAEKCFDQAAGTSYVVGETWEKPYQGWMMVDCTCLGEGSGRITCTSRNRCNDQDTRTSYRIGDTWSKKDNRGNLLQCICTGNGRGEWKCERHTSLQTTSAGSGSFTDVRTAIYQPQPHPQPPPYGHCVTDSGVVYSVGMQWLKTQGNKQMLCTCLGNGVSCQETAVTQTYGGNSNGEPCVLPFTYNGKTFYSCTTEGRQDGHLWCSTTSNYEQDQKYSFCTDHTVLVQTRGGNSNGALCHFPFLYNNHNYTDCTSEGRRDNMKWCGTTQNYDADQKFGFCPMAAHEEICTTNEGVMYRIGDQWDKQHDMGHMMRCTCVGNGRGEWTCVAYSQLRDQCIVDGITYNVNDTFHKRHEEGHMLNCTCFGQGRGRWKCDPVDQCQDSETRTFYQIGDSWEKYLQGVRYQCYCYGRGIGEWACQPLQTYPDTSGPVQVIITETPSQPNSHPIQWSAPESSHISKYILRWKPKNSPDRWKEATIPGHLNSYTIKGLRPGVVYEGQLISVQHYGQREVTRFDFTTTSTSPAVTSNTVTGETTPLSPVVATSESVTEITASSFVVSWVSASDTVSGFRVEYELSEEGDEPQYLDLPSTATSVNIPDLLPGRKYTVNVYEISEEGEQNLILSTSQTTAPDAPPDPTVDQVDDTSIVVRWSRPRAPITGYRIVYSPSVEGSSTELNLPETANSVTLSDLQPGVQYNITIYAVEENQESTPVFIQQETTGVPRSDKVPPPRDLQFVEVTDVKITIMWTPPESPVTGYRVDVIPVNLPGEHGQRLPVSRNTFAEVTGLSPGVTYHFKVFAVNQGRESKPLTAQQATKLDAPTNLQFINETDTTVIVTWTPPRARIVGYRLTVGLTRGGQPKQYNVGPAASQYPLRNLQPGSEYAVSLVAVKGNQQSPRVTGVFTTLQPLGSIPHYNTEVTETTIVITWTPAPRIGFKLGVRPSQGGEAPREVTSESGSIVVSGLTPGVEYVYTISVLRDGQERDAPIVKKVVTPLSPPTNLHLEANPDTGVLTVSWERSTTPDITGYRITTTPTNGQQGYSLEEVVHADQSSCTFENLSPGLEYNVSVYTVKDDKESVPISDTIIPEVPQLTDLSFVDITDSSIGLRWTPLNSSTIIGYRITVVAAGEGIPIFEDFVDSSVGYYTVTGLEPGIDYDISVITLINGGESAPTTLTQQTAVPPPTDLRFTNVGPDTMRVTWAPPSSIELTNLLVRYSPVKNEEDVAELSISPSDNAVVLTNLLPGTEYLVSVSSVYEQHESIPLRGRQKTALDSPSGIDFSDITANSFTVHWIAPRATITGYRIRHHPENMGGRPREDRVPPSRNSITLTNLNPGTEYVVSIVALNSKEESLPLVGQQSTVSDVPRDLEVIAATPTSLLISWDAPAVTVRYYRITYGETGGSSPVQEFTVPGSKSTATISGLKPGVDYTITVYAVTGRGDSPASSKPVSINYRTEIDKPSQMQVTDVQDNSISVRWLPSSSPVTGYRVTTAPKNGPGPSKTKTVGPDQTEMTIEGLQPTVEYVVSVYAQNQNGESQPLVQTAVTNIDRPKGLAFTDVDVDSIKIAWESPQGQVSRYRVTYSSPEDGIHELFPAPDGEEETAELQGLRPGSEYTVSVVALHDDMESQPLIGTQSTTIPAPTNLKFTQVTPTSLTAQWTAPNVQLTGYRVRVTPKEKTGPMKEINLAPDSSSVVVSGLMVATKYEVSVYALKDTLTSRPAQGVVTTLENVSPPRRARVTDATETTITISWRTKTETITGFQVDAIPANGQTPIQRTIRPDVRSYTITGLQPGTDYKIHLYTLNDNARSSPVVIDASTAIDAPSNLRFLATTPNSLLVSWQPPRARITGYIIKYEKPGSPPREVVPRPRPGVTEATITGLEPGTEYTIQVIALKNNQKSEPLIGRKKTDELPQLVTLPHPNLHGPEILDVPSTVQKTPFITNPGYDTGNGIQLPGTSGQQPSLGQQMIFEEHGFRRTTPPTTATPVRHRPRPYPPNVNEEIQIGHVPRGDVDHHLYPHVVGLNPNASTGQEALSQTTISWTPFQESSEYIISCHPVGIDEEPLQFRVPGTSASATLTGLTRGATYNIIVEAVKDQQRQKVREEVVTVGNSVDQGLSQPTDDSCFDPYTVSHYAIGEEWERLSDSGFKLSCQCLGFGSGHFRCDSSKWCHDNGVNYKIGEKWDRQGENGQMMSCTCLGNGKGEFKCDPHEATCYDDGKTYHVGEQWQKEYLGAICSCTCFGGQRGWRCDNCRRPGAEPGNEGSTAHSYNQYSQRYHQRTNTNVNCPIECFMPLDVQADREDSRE
# UniProt Q9WVH8, residues 24-448: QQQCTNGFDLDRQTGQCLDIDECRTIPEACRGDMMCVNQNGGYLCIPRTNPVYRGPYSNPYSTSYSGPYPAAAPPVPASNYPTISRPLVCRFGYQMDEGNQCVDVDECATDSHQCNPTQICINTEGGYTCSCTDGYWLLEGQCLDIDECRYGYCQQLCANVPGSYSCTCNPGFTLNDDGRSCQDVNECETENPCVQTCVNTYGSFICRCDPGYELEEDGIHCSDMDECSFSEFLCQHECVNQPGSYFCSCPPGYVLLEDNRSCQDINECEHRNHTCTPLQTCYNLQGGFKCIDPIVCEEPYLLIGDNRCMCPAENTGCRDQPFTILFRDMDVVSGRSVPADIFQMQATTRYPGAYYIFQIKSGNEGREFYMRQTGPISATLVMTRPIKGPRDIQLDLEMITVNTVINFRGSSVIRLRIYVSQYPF
# B1: recombinant human Ang-1 (angiopoietin-1) (ligand, UniProt Q15389 16-498, looked up)
# chain: HIGCSNQRRSPENSGRRYNRIQHGQCAYTFILPEHDGNCRESTTDQYNTNALQRDAPHVEPDFSSQKLQHLEHVMENYTQWLQKLENYIVENMKSEMAQIQQNAVQNHTATMLEIGTSLLSQTAEQTRKLTDVETQVLNQTSRLEIQLLENSLSTYKLEKQLLQQTNEILKIHEKNSLLEHKILEMEGKHKEELDTLKEEKENLQGLVTRQTYIIQELEKQLNRATTNNSVLQKQQLELMDTVHNLVNLCTKEGVLLKGGKREEEKPFRDCADVYQAGFNKSGIYTIYINNMPEPKKVFCNMDVNGGGWTVIQHREDGSLDFQRGWKEYKMGFGNPSGEYWLGNEFIFAITSQRQYMLRIELMDWEGNRAYSQYDRFHIGNEKQNYRLYLKGHTGTAGKQSSLILHGADFSTKDADNDNCMCKCALMLTGGWWFDACGPSNLNGMFYTAGQNHGKLNGIKWHYFKGPSYSLRSTTMMIRPLDF
# notes: angiopoietin-1, human, recombinant, R&D Systems Cat. #923-AN/CF; The introduction calls angiopoietins oligomeric glycoproteins; source: bought: R&D Systems
# How the values were obtained:
# [1] = biological target: T1, recombinant human Tie-2/Fc chimera (human, UniProt Q02763 23-748); test: ELISA; solid-phase binding assay; Tie-2/Fc (4.0 ug/ml), Ang-1 (200 ng/ml), tropoelastin, fibronectin or BSA (10 ug/ml each) coated on 96-well plates in 4 mM CaCl2 in TBS; 1:2 serial dilutions of soluble Fibulin-5 in 2% non-fat milk in TBS, 1 hr, room temperature; detected with Fibulin-5 antibody; both purified
# T1 construct: TIE-2 receptor tyrosine kinase, human, part fused to Fc in R&D Systems Cat. #313-TI-100; source: bought: R&D Systems
# [2] = biological target: BSA (bovine) (UniProt P02769); test: as above
# [3] = biological target: fibronectin (UniProt P07589); test: as above
# [4] = biological target: recombinant human Ang-1 (angiopoietin-1) (human) (UniProt Q15389); test: as above
# [5] = biological target: recombinant full-length (wild-type) rat Fibulin-5 (rat) (UniProt Q9WVH8); test: ELISA; solid-phase binding assay; TIE-2/Fc (4.0 ug/ml) or Fibulin-5 (20 ug/ml) coated on 96-well plates; 1:2 serial dilutions of soluble Ang-1 in 2% non-fat milk in TBS, 1 hr, room temperature; detected with Ang-1 antibody; both purified
Molecule,binding [1],binding [2],binding [3],binding [4],binding [5]
recombinant full-length (wild-type) rat Fibulin-5 (from UniProt Q9WVH8 24-448),no binding,no binding,binds,no binding,
B1,,,,,no binding

# From PMC4909301, “Fibulin-5 Regulates Angiopoietin-1/Tie-2 Receptor Signaling in Endothelial Cells” (PLoS ONE, 2016)
